Literature values as cited in patent US7381546B2, “Polyketides and their synthesis and use” (Biotica Technology Limited, priority 1998, dated 2008).
At least one structure is not confirmed: it was looked up by name or label, or the drawing left a doubt.

System: 536 cell line
Conditions: Metcalfe et al., Oncogene 15, 1635-1642 (1997); cited from earlier work

Q: For `CO[C@H]1C[C@@H]2CC[C@@H](C)[C@@](O)(O2)C(=O)C(=O)N2CCCC[C@H]2C(=O)O[C@H]([C@H](C)C[C@@H]2CC[C@@H](O)[C@H](OC)C2)CC(=O)[C@H](C)/C=C(\C)[C@@H](O)[C@@H](OC)C(=O)[C@H](C)C[C@H](C)/C=C/C=C/C=C/1C` [rapamycin, reference compound], which “inhibition of G1 progression” value is on record?
A: profound inhibitor
